Measurements from doi:10.1101/2025.09.06.674659.
Results are given in words; binding and its absence hold for the method and conditions named. Binding seen in cells or lysates may run through a third protein. Some binding calls cover weakened binding; strength is not graded here.

The chains behind the UniProt entries cited, without tags or fusion partners. Where a name states a change or a piece, a line headed by the entry shows the natural chain unless it says otherwise.
UniProt Q9NP72: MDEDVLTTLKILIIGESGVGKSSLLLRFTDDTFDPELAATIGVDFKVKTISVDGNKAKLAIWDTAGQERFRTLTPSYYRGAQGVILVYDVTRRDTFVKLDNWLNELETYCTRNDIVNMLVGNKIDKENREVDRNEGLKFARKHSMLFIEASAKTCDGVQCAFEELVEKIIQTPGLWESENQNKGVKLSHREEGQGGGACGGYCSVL
UniProt P33175: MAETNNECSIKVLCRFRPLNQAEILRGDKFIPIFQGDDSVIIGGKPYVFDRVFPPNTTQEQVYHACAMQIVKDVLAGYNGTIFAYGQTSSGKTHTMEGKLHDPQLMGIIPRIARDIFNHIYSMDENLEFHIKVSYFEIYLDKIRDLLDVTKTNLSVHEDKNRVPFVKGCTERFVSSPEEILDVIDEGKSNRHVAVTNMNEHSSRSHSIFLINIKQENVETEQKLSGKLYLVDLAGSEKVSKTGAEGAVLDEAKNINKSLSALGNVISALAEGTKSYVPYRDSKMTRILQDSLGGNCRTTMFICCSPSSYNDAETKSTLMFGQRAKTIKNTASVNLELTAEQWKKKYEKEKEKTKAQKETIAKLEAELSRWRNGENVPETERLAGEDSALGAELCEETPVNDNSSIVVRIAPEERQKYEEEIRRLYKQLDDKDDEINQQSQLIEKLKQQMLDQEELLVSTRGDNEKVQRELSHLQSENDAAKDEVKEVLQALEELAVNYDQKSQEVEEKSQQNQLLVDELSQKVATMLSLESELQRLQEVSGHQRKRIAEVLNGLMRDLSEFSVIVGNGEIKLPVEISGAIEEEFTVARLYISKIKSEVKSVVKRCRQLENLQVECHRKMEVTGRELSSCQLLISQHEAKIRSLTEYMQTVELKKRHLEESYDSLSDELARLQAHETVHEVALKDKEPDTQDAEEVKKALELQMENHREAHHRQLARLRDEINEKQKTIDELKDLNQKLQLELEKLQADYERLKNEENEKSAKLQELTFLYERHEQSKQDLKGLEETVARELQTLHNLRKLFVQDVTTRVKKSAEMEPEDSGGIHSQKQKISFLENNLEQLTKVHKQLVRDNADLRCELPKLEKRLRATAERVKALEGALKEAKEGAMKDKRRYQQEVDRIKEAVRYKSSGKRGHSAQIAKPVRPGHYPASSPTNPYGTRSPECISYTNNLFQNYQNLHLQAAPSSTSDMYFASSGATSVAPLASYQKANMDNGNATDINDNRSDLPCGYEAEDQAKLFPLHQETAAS

B1: neutral sphingomyelinase 2 (nSMase2) (enzyme, UniProt Q9JJY3 1-655)
chain: MVLYTTPFPNSCLSALHAVSWALIFPCYWLVDRLLASFIPTTYEKRQRADDPCCLQLFCTVLFTPVYLALLVAALPFAFLGFIFWSPLQSARRPYSYSRLEDKNPAGGAALLSEWKGTGAGKSFCFATANVCLLPDSLARLNNVFNTQARAKEIGQRIRNGAARPQIKIYIDSPTNTSISAASFSSLVSPQGGDGSRAVPGSIKRTASVEYKGDGGRHPSDEAANGPASGEQADGSLEDSCIVRIGGEEGGRPQEADDPAAGSQARNGAGGTPKGQTPNHNQRDGDSGSLGSPSASRESLVKARAGQDSGGSGEPGANSKLLYKTSVVKKAAARRRRHPDEAFDHEVSAFFPANLDFLCLQEVFDKRAAAKLKEQLHGYFEYILYDVGVYGCHGCCNFKCLNSGLFFASRYPVMDVAYHCYPNGCSFDALASKGALFLKVQVGSTPQDQRIVGYIACTHLHAPPEDSAVRCEQLDLLQDWLADFRKSTSSTSTANPEELVVFDVICGDLNFDNCSSDDKLEQQHSLFTRYKDPCRLGPGEEKPWAIGTLLDTNGLYDEDVCTPDNLQKVLESEEGRREYLAFPTSKSPGAGQKGRKDLLKGNGRRIDYMLHAEEGLCPDWKAEVEEFSFITQLSGLTDHLPVAMRLMVSAGEEEA

What was measured:
[1] = biological target: GST-tagged Rab18Q67L (GTP-bound mimetic) (UniProt Q9NP72); assay: pull-down
[2] = biological target: GST-tagged Rab18S22N (GDP-bound mimetic) (UniProt Q9NP72); assay: pull-down

Molecule | binding [1] | binding [2]
kinesin-1 molecular motor KIF5 (KIF5A) (from UniProt P33175 1-1027) | binds | 
B1 |  | binds
